Taken from: PubChem BioAssay AID720705 (Peter MacCallum Cancer Centre, 2013)
Aim: 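Retest of 50 candidate kinases for effects on angiotensin II–triggered EGFR signalling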 (follow-up of hits). System: human HMEC-LST-AT1R mammary epithelial cells. Reagents: single siRNA against human genes, 25 nM per duplex. Timing: 72 h after transfection. Treatment: angiotensin II stimulation; dose and duration not given. Detection: 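ERK1/2 phosphorylation after angiotensin II, read by AlphaScreen SureFire per well, as signed fold change against averaged mock and GFP siRNA wells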. Scale: duplexes agreeing on an effect (of 4): higher = more duplexes of this gene agree on an effect; signed phospho-ERK fold change vs controls: higher = more ERK phosphorylation than controls; negative values are decreases. Active means: 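Gene called active when two or more of its four siRNAs each shift ERK phosphorylation beyond 1.5-fold the same way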. Meaning of the calls: active = high/medium confidence (2-4 of 4 duplexes); inactive = low confidence (0-1 of 4 duplexes).
In all, the deposit lists 200 reagents; below is a part drawn at random. Over the whole deposit, 116 (58%) were called active. 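Negative fold changes mean less ERK phosphorylation; hits count in both directions; calls are per gene.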 Unmarked entries are inactive. The numbers tell different reagents against one gene apart. Reagent sequences are not shown.

gene knocked down	reagent	duplexes agreeing on an effect (of 4)	signed phospho-ERK fold change vs controls
IPPK (inositol-pentakisphosphate 2-kinase)	1	2 (active)	1.97
IPPK (inositol-pentakisphosphate 2-kinase)	2	2 (active)	-1.35
IPPK (inositol-pentakisphosphate 2-kinase)	3	2 (active)	-1.51
IPPK (inositol-pentakisphosphate 2-kinase)	4	2 (active)	-2.39
AGK (acylglycerol kinase)	1	1	1.16
AGK (acylglycerol kinase)	2	1	1.29
AGK (acylglycerol kinase)	3	1	-1.76
AGK (acylglycerol kinase)	4	1	1.22
BMPR1A (bone morphogenetic protein receptor type 1A)	1	1	-1.37
BMPR1A (bone morphogenetic protein receptor type 1A)	2	1	-1.23
BMPR1A (bone morphogenetic protein receptor type 1A)	3	1	-1.49
BMPR1A (bone morphogenetic protein receptor type 1A)	4	1	-1.76
COASY (Coenzyme A synthase)	1	1	-1.42
COASY (Coenzyme A synthase)	2	1	0.228
COASY (Coenzyme A synthase)	3	1	1.38
COASY (Coenzyme A synthase)	4	1	1.77
PRKCH (protein kinase C eta)	1	1	-0.013
PRKCH (protein kinase C eta)	2	1	1.67
PRKCH (protein kinase C eta)	3	1	-1.24
PRKCH (protein kinase C eta)	4	1	-2.42
TAOK3 (TAO kinase 3)	1	1	1.3
TAOK3 (TAO kinase 3)	2	1	-1.11
TAOK3 (TAO kinase 3)	3	1	0.042
TAOK3 (TAO kinase 3)	4	1	-1.52
DYRK1A	1	3 (active)	1.55
DYRK1A	2	3 (active)	-1.64
DYRK1A	3	3 (active)	-2.2
DYRK1A	4	3 (active)	-2
STK16 (serine/threonine kinase 16)	1	1	-1.41
STK16 (serine/threonine kinase 16)	2	1	-1.21
STK16 (serine/threonine kinase 16)	3	1	-1.44
STK16 (serine/threonine kinase 16)	4	1	-1.79
STRADA (STE20 related adaptor alpha)	1	1	-1.14
STRADA (STE20 related adaptor alpha)	2	1	1.46
STRADA (STE20 related adaptor alpha)	3	1	-2.06
STRADA (STE20 related adaptor alpha)	4	1	-1.27

Next part, starting with the last 8 of the part before.
gene knocked down	reagent	duplexes agreeing on an effect (of 4)	signed phospho-ERK fold change vs controls
STK16 (serine/threonine kinase 16)	1	1	-1.41
STK16 (serine/threonine kinase 16)	2	1	-1.21
STK16 (serine/threonine kinase 16)	3	1	-1.44
STK16 (serine/threonine kinase 16)	4	1	-1.79
STRADA (STE20 related adaptor alpha)	1	1	-1.14
STRADA (STE20 related adaptor alpha)	2	1	1.46
STRADA (STE20 related adaptor alpha)	3	1	-2.06
STRADA (STE20 related adaptor alpha)	4	1	-1.27
STYK1 (STY kinase 1)	1	2 (active)	1.13
STYK1 (STY kinase 1)	2	2 (active)	-1.22
STYK1 (STY kinase 1)	3	2 (active)	-2.96
STYK1 (STY kinase 1)	4	2 (active)	-2.07
CDK5R1 (cyclin dependent kinase 5 regulatory subunit 1)	1	1	1.77
CDK5R1 (cyclin dependent kinase 5 regulatory subunit 1)	2	1	1.39
CDK5R1 (cyclin dependent kinase 5 regulatory subunit 1)	3	1	-1.94
CDK5R1 (cyclin dependent kinase 5 regulatory subunit 1)	4	1	-1.35
DBF4 (DBF4-CDC7 kinase regulatory subunit)	1	3 (active)	1.64
DBF4 (DBF4-CDC7 kinase regulatory subunit)	2	3 (active)	-2
DBF4 (DBF4-CDC7 kinase regulatory subunit)	3	3 (active)	-1.88
DBF4 (DBF4-CDC7 kinase regulatory subunit)	4	3 (active)	-1.86
MAP3K8 (mitogen-activated protein kinase kinase kinase 8)	1	1	-1.35
MAP3K8 (mitogen-activated protein kinase kinase kinase 8)	2	1	-1.48
MAP3K8 (mitogen-activated protein kinase kinase kinase 8)	3	1	1.68
MAP3K8 (mitogen-activated protein kinase kinase kinase 8)	4	1	-1.57
RPS6KA4 (ribosomal protein S6 kinase A4)	1	1	-1.09
RPS6KA4 (ribosomal protein S6 kinase A4)	2	1	1.21
RPS6KA4 (ribosomal protein S6 kinase A4)	3	1	-2.66
RPS6KA4 (ribosomal protein S6 kinase A4)	4	1	1.25
PSKH2 (protein serine kinase H2)	1	2 (active)	-1.73
PSKH2 (protein serine kinase H2)	2	2 (active)	1.58
PSKH2 (protein serine kinase H2)	3	2 (active)	-2.12
PSKH2 (protein serine kinase H2)	4	2 (active)	-1.04
